No constants are given. Whether binding was seen depends on the method and setting. In cells and extracts the contact can be indirect. A result given as binding can be weak or reduced; the word gives no strength.
Biological target: Flag-tagged NEMO (UniProt Q9Y6K9)
Experiment: co-IP

Protein sequences, listed by entry. Tags and fused reporters are not part of them. Lines headed by an entry give the natural chain unless they say otherwise; changes in a name come on top.
UniProt Q9Y6K9, whole entry, stated change not applied: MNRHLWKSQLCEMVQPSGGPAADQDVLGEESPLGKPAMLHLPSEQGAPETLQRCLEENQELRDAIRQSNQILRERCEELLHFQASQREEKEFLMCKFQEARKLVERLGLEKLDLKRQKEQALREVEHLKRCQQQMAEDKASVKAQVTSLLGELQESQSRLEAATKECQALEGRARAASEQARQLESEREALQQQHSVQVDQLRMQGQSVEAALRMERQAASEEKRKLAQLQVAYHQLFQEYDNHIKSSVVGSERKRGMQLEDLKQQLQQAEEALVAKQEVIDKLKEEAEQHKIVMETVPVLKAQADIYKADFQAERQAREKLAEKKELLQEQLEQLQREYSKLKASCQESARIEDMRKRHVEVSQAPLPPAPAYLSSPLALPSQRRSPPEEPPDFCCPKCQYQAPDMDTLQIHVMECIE

HA-N4BP1 with NYN domain deletion (from UniProt O75113)
binding: binds

Reference: doi:10.1101/2020.10.21.349357
